Assay results from the supplement of paper PMC10849652.
This is one part of the list.

By UniProt entry, the sequences of proteins in these tests, tags left out. Where a name states a change or a piece, a line headed by the entry shows the natural chain unless it says otherwise.
UniProt Q16891: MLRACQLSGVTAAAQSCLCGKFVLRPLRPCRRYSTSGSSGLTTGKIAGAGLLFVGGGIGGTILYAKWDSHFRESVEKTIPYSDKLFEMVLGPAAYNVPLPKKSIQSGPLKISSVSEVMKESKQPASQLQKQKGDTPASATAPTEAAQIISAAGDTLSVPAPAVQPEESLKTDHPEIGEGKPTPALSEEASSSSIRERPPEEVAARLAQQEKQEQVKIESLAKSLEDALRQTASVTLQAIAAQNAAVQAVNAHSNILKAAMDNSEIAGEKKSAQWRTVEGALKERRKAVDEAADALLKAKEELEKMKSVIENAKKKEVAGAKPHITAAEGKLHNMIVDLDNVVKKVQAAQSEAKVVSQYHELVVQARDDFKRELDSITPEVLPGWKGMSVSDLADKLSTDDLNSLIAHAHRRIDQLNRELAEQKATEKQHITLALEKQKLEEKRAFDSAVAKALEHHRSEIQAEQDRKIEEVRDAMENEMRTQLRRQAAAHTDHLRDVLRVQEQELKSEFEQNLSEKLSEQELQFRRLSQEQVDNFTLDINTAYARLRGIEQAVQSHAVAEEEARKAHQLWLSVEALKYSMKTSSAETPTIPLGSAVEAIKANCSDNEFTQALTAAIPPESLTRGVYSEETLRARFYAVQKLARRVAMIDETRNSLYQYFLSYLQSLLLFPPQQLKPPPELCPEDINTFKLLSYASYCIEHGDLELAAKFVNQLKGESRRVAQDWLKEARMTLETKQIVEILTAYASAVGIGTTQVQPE
UniProt O95373, whole entry, looked up: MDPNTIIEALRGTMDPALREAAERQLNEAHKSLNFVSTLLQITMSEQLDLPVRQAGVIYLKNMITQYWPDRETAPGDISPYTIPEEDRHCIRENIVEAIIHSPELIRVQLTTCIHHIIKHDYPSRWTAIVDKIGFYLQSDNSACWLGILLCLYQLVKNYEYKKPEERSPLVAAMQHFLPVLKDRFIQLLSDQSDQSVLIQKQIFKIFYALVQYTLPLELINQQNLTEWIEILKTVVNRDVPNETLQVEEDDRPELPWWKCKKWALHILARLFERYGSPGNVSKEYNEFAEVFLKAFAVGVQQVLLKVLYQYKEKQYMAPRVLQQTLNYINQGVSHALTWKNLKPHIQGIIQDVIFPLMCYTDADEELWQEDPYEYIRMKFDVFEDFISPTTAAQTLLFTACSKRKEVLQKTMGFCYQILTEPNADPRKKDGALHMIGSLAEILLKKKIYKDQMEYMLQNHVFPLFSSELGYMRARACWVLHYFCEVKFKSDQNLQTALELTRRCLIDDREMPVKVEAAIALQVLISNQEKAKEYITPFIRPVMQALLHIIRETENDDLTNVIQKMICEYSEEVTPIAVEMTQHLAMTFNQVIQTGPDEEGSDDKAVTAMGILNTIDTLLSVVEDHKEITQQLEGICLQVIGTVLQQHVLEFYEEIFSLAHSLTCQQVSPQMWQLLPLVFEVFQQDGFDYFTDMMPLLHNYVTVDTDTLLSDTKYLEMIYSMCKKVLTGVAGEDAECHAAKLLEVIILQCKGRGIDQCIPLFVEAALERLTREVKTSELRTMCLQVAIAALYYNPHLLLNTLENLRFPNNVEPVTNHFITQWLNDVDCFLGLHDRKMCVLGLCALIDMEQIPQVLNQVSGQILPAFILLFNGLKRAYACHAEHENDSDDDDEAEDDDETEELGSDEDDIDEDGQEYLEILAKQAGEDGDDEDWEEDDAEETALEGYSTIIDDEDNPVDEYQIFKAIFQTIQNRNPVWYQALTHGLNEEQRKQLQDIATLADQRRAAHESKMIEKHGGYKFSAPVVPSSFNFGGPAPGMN
UniProt Q9Y5U9: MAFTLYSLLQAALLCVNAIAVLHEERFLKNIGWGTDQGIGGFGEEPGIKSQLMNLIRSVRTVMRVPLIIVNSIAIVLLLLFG
UniProt Q9H6K1: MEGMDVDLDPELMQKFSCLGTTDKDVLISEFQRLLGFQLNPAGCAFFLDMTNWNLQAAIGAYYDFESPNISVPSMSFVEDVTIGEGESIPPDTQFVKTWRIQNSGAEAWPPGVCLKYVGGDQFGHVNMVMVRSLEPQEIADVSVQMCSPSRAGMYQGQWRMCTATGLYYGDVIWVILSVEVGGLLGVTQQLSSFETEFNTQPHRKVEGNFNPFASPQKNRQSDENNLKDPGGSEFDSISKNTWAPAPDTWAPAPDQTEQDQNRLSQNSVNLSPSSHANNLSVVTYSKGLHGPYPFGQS
UniProt Q96LU5: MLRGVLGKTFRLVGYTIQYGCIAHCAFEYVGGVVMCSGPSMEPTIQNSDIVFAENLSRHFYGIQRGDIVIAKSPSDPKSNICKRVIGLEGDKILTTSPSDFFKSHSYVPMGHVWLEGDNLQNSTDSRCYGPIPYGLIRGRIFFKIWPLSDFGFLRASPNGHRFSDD
UniProt Q9NVH2, whole entry, looked up: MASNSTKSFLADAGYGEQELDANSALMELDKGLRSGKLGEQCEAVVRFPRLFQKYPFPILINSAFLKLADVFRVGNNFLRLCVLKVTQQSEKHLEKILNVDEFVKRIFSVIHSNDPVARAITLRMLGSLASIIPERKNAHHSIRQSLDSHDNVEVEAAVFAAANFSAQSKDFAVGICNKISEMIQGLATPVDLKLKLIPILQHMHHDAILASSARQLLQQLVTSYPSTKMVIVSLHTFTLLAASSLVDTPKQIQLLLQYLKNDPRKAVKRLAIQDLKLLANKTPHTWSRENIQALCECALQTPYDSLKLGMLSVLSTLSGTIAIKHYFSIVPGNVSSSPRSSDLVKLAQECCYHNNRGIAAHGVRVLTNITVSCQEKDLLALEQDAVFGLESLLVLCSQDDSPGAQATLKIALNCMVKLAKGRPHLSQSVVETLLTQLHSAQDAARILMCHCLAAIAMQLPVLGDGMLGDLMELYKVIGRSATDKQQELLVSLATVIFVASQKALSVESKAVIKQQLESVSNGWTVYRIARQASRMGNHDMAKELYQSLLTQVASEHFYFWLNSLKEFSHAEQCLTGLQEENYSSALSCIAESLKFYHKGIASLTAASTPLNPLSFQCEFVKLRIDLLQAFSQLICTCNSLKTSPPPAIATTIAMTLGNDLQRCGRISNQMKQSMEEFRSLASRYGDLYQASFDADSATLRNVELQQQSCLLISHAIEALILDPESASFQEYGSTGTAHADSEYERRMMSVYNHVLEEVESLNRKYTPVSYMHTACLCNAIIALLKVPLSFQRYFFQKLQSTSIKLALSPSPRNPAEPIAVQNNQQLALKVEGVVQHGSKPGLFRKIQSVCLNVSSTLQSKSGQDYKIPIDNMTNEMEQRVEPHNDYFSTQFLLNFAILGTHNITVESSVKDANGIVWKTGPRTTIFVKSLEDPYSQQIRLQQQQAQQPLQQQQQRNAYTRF
UniProt O94829: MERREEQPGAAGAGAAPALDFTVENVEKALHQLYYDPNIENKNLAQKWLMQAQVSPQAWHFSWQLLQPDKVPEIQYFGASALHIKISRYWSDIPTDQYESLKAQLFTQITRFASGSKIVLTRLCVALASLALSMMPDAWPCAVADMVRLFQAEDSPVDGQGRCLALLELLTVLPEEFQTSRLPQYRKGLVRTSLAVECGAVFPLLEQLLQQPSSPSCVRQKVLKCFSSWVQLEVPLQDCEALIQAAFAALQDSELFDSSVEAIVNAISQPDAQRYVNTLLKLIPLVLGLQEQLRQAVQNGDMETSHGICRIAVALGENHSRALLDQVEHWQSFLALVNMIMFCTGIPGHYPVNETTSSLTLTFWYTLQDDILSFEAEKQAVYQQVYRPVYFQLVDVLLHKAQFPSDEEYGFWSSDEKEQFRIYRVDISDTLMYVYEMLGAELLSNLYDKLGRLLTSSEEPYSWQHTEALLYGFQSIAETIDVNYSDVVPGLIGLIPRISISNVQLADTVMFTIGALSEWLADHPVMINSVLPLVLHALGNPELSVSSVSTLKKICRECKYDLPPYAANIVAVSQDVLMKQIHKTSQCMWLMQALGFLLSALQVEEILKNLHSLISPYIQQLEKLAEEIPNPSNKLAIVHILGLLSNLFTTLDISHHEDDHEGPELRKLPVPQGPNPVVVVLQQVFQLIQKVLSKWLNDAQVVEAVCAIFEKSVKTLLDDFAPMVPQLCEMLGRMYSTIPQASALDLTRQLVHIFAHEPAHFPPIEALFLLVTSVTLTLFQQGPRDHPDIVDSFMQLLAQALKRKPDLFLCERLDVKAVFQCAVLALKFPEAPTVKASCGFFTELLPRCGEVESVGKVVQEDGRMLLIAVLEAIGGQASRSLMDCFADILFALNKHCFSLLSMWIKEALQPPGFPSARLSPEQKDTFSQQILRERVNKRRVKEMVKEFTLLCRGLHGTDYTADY
UniProt P0DMQ5: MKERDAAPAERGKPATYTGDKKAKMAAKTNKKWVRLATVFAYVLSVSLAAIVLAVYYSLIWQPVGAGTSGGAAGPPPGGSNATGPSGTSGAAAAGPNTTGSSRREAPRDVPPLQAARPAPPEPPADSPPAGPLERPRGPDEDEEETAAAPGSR
UniProt Q969R8: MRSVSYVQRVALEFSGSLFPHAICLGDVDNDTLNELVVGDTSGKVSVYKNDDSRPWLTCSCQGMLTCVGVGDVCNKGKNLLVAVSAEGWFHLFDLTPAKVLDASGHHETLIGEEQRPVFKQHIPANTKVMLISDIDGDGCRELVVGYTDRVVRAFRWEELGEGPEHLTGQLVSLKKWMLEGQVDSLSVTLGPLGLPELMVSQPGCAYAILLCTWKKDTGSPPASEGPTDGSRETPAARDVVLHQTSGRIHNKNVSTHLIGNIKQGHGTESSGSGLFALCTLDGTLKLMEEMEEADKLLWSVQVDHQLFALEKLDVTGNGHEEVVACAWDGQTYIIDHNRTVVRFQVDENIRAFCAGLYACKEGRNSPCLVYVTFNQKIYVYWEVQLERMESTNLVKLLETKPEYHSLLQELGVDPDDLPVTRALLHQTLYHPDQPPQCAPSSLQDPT
UniProt Q01628, whole entry, looked up: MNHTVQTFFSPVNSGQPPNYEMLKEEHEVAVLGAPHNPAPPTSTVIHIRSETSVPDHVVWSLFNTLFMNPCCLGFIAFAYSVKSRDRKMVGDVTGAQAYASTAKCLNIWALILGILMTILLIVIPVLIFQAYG
UniProt Q9UI26: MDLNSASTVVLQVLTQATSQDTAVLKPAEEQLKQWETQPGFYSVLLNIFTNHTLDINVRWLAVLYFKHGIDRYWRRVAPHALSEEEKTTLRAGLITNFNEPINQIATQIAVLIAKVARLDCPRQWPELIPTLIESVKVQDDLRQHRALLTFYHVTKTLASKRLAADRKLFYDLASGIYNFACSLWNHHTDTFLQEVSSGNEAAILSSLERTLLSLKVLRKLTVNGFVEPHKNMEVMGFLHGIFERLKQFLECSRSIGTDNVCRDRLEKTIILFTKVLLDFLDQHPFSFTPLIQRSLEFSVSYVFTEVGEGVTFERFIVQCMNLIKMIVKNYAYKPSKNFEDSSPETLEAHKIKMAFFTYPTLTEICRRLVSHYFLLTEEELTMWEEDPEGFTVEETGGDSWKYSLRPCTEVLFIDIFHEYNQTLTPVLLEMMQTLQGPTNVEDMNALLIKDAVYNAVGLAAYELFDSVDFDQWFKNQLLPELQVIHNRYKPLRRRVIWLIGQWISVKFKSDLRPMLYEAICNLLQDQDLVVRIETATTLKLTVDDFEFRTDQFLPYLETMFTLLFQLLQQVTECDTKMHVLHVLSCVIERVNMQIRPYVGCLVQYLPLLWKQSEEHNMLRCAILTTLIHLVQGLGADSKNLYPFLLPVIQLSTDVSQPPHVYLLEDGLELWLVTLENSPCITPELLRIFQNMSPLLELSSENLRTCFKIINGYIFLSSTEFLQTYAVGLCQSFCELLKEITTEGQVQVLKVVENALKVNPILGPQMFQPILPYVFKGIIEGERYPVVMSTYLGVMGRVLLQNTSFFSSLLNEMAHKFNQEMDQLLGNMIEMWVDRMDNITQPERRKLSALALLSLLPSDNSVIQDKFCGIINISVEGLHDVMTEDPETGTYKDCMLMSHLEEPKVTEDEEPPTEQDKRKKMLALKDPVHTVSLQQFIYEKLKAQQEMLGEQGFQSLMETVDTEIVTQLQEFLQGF
UniProt O14732: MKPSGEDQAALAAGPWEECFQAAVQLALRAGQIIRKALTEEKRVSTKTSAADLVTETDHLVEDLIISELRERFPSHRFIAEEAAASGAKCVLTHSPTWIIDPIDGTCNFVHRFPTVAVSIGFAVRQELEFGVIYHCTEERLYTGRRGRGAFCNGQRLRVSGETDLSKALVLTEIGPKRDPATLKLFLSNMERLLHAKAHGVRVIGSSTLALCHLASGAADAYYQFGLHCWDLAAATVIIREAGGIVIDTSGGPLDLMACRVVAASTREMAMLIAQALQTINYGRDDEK

What was measured:
Experiment in all cases: log2 fold change, soluble protein after heating vs DMSO (PISA); higher = thermal stabilisation; K562 cells, 10 uM, 30 min; active = over 0.2 and 3.5 SD of the protein, either way, in both replicates (recomputed)
[1] = compound: COC1=CC=C(C=C1)CN2C=CC3=C2C=C(C=C3)C(=O)NO
How it was run: (§1)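 K562 cells at 2×10^6 cells/mL were treated for 30 min with 10 μM compound, and aliquots were heated for 3 min over 48°C-58°C before pooling. Extraction used PBS with 0.5% NP-40 at 4°C, and soluble protein was the supernatant after 21,000xg for 90 min, measured by TMTpro 16plex LC-MS/MS with channel sums equalised. Thermal stability values, relative to control samples and from duplicates, are log2 fold changes.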

filanesib = compound: CON(C)C(=O)N1N=C(c2cc(F)ccc2F)S[C@@]1(CCCN)c1ccccc1 [filanesib]
How it was run: as §1

zotarolimus = compound: CO[C@H]1C[C@@H]2CC[C@@H](C)[C@@](O)(O2)C(=O)C(=O)N2CCCC[C@H]2C(=O)O[C@H]([C@H](C)C[C@@H]2CC[C@H](n3cnnn3)[C@H](OC)C2)CC(=O)[C@H](C)/C=C(\C)[C@@H](O)[C@@H](OC)C(=O)[C@H](C)C[C@H](C)/C=C/C=C/C=C/1C [zotarolimus]
How it was run: as §1

idasanutlin = compound: COc1cc(C(=O)O)ccc1NC(=O)[C@@H]1N[C@@H](CC(C)(C)C)[C@](C#N)(c2ccc(Cl)cc2F)[C@H]1c1cccc(Cl)c1F [idasanutlin]
How it was run: as §1

alisertib = compound: COc1cc(Nc2ncc3c(n2)-c2ccc(Cl)cc2C(c2c(F)cccc2OC)=NC3)ccc1C(=O)O [alisertib]
How it was run: as §1

[2] = compound: COc1cc2nc(-c3cc(F)ccc3O)nc(N[C@@H]3CNC[C@H]3C(C)(C)O)c2cc1OC
How it was run: as §1

gefitinib = compound: COc1cc2ncnc(Nc3ccc(F)c(Cl)c3)c2cc1OCCCN1CCOCC1 [gefitinib]
How it was run: as §1

[3] = compound: COc1cccc2cc(-c3nc([C@H]4CC[C@H](C(=O)O)CC4)n4ncnc(N)c34)[nH]c12
How it was run: as §1

lapatinib = compound: CS(=O)(=O)CCNCc1ccc(-c2ccc3ncnc(Nc4ccc(OCc5cccc(F)c5)c(Cl)c4)c3c2)o1 [lapatinib]
How it was run: as §1

[4] = compound: CS(=O)(=O)c1ccc(-c2cnc(N)c(C(=O)Nc3ccccc3)n2)cc1
How it was run: as §1

crizotinib = compound: C[C@@H](Oc1cc(-c2cnn(C3CCNCC3)c2)cnc1N)c1c(Cl)ccc(F)c1Cl [crizotinib]
How it was run: as §1

[5] = compound: C[C@@H]1COCCN1C2=NC(=NC(=C2)C3(CC3)S(=O)(=O)C)C4=C5C=CNC5=CC=C4
How it was run: as §1

[6] = compound: C[C@H](C1=CC=C(C=C1)C(=O)NC2=C3C=CNC3=NC=C2)N
How it was run: as §1

[7] = compound: Cc1cc(SCc2sc(-c3ccc(C(F)(F)F)cc3)nc2C)ccc1OCC(=O)O
How it was run: as §1

doramapimod = compound: Cc1ccc(-n2nc(C(C)(C)C)cc2NC(=O)Nc2ccc(OCCN3CCOCC3)c3ccccc23)cc1 [doramapimod]
How it was run: as §1

ispinesib = compound: Cc1ccc(C(=O)N(CCCN)[C@@H](c2nc3cc(Cl)ccc3c(=O)n2Cc2ccccc2)C(C)C)cc1 [ispinesib]
How it was run: as §1

pictilisib = compound: CS(=O)(=O)N1CCN(Cc2cc3nc(-c4cccc5[nH]ncc45)nc(N4CCOCC4)c3s2)CC1 [pictilisib]
How it was run: as §1

gandotinib = compound: Cc1cc(Nc2cc(CN3CCOCC3)c3nc(C)c(Cc4ccc(Cl)cc4F)n3n2)n[nH]1 [gandotinib]
How it was run: as §1

duvelisib = compound: C[C@H](Nc1ncnc2nc[nH]c12)c1cc2cccc(Cl)c2c(=O)n1-c1ccccc1 [duvelisib]
How it was run: as §1

tozasertib = compound: Cc1cc(Nc2cc(N3CCN(C)CC3)nc(Sc3ccc(NC(=O)C4CC4)cc3)n2)n[nH]1 [tozasertib]
How it was run: as §1

Measured: log2 fold change

IL27RA (UniProt Q6UWB1)
inactive: [1] -0.02 | filanesib 0.065 | zotarolimus -0.11 | idasanutlin 0.113 | alisertib -0.29 | [2] 0.047 | gefitinib -0.169 | [3] 0.207 | lapatinib 0.043 | [4] -0.031 | crizotinib 0.029 | [6] -0.121 | [7] -0.109 | doramapimod 0.211 | ispinesib 0.043
active: [5] 0.539

IMMT isoform 4 (UniProt Q16891)
inactive: [1] -0.008 | filanesib -0.122 | zotarolimus -0.007 | idasanutlin -0.082 | alisertib -0.049 | [2] -0.146 | gefitinib -0.005 | [3] 0.013 | lapatinib -0.047 | pictilisib 0.005 | [4] 0.017 | crizotinib -0.102 | [5] 0.084 | [6] -0.012 | gandotinib -0.093 | [7] 0 | doramapimod -0.014 | ispinesib -0.202

ITIH4 (UniProt Q14624)
inactive: [1] 0.252 | filanesib -0.174 | idasanutlin 0.184 | alisertib -0.047 | [2] -0.146 | gefitinib -0.093 | [3] 0.277 | lapatinib -0.034 | pictilisib -0.241 | [4] -0.107 | crizotinib -0.102 | [5] 0.129 | [6] -0.005 | gandotinib -0.387 | [7] -0.031 | doramapimod -0.291 | ispinesib -0.402
active: zotarolimus -0.896

IPO7 (UniProt O95373)
inactive: [1] 0.053 | filanesib -0.094 | zotarolimus 0.014 | idasanutlin -0.103 | alisertib -0.087 | [2] -0.111 | gefitinib 0 | [3] -0.014 | lapatinib -0.008 | pictilisib -0.006 | [4] -0.011 | crizotinib -0.138 | [5] 0.042 | [6] -0.07 | gandotinib -0.185 | [7] 0.073 | doramapimod -0.054 | ispinesib -0.077

IER3IP1 (UniProt Q9Y5U9)
inactive: [1] 0.153 | filanesib -0.159 | zotarolimus -0.083 | idasanutlin 0.006 | alisertib -0.075 | [2] 0.003 | [3] 0.038 | lapatinib 0.055 | pictilisib -0.052 | [4] -0.027 | crizotinib 0.157 | [5] -0.006 | [6] -0.264 | duvelisib 0.036 | gandotinib 0.032 | tozasertib -0.023 | [7] -0.078 | doramapimod -0.033 | ispinesib 0.137

IRF2 (UniProt P14316)
inactive: [1] -0.009 | filanesib 0.003 | zotarolimus 0 | idasanutlin 0.162 | alisertib 0.089 | [2] -0.17 | gefitinib 0.015 | [3] 0.039 | lapatinib 0.188 | pictilisib -0.231 | [4] 0.039 | crizotinib 0.05 | [6] -0.17 | gandotinib 0.091 | tozasertib 0.042 | doramapimod 0.003 | ispinesib 0.059

ILRUN (UniProt Q9H6K1)
inactive: [1] -0.051 | filanesib -0.016 | zotarolimus 0.042 | idasanutlin -0.101 | alisertib -0.03 | [2] -0.002 | gefitinib 0.048 | [3] 0.09 | lapatinib 0.08 | [4] -0.033 | crizotinib 0.115 | [5] 0.028 | [6] -0.038 | [7] 0.029 | doramapimod 0.005 | ispinesib 0.032

IMMP1L (UniProt Q96LU5)
inactive: [1] -0.041 | filanesib -0.067 | zotarolimus -0.034 | idasanutlin -0.067 | [2] 0.005 | gefitinib -0.022 | [3] 0.016 | lapatinib -0.062 | [4] 0.024 | crizotinib 0.121 | [5] 0.045 | [6] -0.05 | [7] 0.012 | doramapimod 0.015 | ispinesib -0.063
active: alisertib -0.252

INTS7 (UniProt Q9NVH2)
inactive: [1] 0.05 | filanesib -0.022 | zotarolimus -0.007 | idasanutlin -0.052 | alisertib -0.029 | [2] 0.05 | gefitinib -0.052 | [3] -0.012 | lapatinib -0.015 | pictilisib 0.148 | [4] 0.009 | crizotinib -0.133 | [5] -0.053 | [6] -0.054 | gandotinib 0.211 | [7] 0.014 | doramapimod -0.091 | ispinesib -0.036

IPO13 (UniProt O94829)
inactive: [1] -0.017 | filanesib -0.144 | zotarolimus -0.039 | idasanutlin -0.038 | alisertib 0.021 | [2] -0.024 | gefitinib -0.047 | [3] 0.008 | lapatinib 0.038 | pictilisib 0.109 | [4] -0.042 | crizotinib -0.134 | [5] 0.016 | [6] -0.028 | gandotinib -0.234 | [7] 0.01 | doramapimod 0.023 | ispinesib -0.13

INAFM2 (UniProt P0DMQ5)
inactive: [1] -0.162 | filanesib -0.144 | zotarolimus 0.005 | idasanutlin -0.058 | alisertib 0.022 | [2] -0.091 | gefitinib 0.001 | [3] 0.082 | lapatinib 0.016 | [4] 0.033 | crizotinib 0.456 | [5] -0.017 | [6] -0.017 | tozasertib -0.022 | doramapimod -0.136 | ispinesib 0.043

INPP5B (UniProt P32019)
inactive: [1] 0 | filanesib -0.015 | zotarolimus 0.002 | idasanutlin -0.003 | alisertib 0.03 | [2] 0.052 | gefitinib -0.008 | [3] -0.043 | lapatinib 0.006 | pictilisib 0.04 | [4] 0.057 | crizotinib -0.096 | [5] -0.02 | [6] 0.042 | gandotinib 0.017 | [7] 0.029 | doramapimod 0.095 | ispinesib -0.005

ITFG2 (UniProt Q969R8)
inactive: [1] -0.053 | filanesib 0.055 | zotarolimus 0.035 | idasanutlin -0.042 | alisertib 0.069 | [2] 0.055 | gefitinib -0.061 | [3] -0.014 | lapatinib 0.038 | [4] 0.089 | crizotinib -0.033 | [5] 0.119 | [6] -0.017 | duvelisib 0.102 | tozasertib 0.057 | [7] 0.088 | doramapimod 0.065 | ispinesib 0.018

IFITM3 (UniProt Q01628)
inactive: [1] 0.055 | filanesib 0.008 | zotarolimus 0.007 | idasanutlin 0.07 | alisertib -0.121 | [2] -0.017 | gefitinib 0.09 | [3] 0.089 | lapatinib 0.004 | [4] -0.038 | crizotinib -0.027 | [5] 0.069 | [6] -0.085 | [7] -0.094 | doramapimod 0.038 | ispinesib 0.07

IPO11 isoform 2 (UniProt Q9UI26)
inactive: [1] 0.036 | filanesib -0.045 | zotarolimus 0.002 | idasanutlin -0.087 | alisertib -0.023 | [2] -0.006 | gefitinib -0.049 | [3] 0.04 | lapatinib 0.005 | pictilisib 0.028 | [4] 0.037 | crizotinib 0 | [5] -0.015 | [6] -0.082 | gandotinib -0.076 | [7] 0.007 | doramapimod -0.028 | ispinesib 0.051

2 records drawn at random from the list so far:
IMMP1L (UniProt Q96LU5)
inactive: [1] -0.041 | filanesib -0.067 | zotarolimus -0.034 | idasanutlin -0.067 | [2] 0.005 | gefitinib -0.022 | [3] 0.016 | lapatinib -0.062 | [4] 0.024 | crizotinib 0.121 | [5] 0.045 | [6] -0.05 | [7] 0.012 | doramapimod 0.015 | ispinesib -0.063
active: alisertib -0.252

INPP5B (UniProt P32019)
inactive: [1] 0 | filanesib -0.015 | zotarolimus 0.002 | idasanutlin -0.003 | alisertib 0.03 | [2] 0.052 | gefitinib -0.008 | [3] -0.043 | lapatinib 0.006 | pictilisib 0.04 | [4] 0.057 | crizotinib -0.096 | [5] -0.02 | [6] 0.042 | gandotinib 0.017 | [7] 0.029 | doramapimod 0.095 | ispinesib -0.005

(next part)

IKZF1 (UniProt Q13422)
inactive: [1] -0.045 | filanesib -0.136 | zotarolimus 0.004 | idasanutlin 0.037 | alisertib -0.019 | [2] 0.01 | gefitinib 0.128 | [3] 0.039 | lapatinib -0.041 | pictilisib 0.026 | [4] -0.065 | crizotinib -0.048 | [5] 0.008 | [6] -0.069 | gandotinib -0.038 | [7] 0.039 | doramapimod -0.016 | ispinesib -0.186

IMPA2 (UniProt O14732)
inactive: filanesib -0.257 | zotarolimus -0.2 | idasanutlin 0.048 | alisertib 0.391 | [2] 0.027 | [3] -0.02 | lapatinib -0.053 | pictilisib 0.112 | [4] 0.009 | [6] 0.202 | duvelisib 0.066 | gandotinib 0.026 | tozasertib 0.133 | [7] 0.034 | ispinesib 0.054

IL18R1 (UniProt Q13478)
inactive: [1] -0.254 | filanesib -0.136 | alisertib 0.001 | [2] 0.199 | gefitinib 0.059 | [3] 0.167 | lapatinib -0.04 | pictilisib 0.233 | [4] 0.088 | crizotinib 0.036 | duvelisib 0.196 | gandotinib -0.048 | [7] -0.012 | doramapimod -0.166

INTS8 (UniProt Q75QN2)
inactive: [1] 0.009 | filanesib -0.262 | zotarolimus -0.073 | idasanutlin 0.001 | [2] 0.099 | gefitinib 0.261 | lapatinib 0.089 | pictilisib 0.04 | [4] 0.019 | crizotinib -0.109 | [6] 0.097 | duvelisib 0.033 | gandotinib 0.091 | tozasertib 0.01 | [7] 0.092 | doramapimod -0.091 | ispinesib 0.037
